Data taken from patent publication US20240352084A1.
Results are given in words; binding and its absence hold for the method and conditions named. Some entries that bind do so weakly or less than the wild type. Where a sequence is shown, tags or fusion partners need not be part of it.

Chains of the proteins cited; added tags and fusions are not shown. Residues count along the entry.
UniProt P01589, residues 22-272: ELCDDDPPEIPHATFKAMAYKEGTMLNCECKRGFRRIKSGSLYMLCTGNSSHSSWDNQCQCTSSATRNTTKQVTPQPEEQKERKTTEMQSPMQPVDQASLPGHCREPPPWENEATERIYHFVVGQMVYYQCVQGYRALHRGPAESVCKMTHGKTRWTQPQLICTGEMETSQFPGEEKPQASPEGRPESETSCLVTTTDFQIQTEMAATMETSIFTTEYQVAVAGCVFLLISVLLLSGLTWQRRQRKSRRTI

Target: SNAPf-IL-2Rα stably expressed in HeLa cells (IL-2Rα fused to an N-terminal SNAPf-tag) (UniProt P01589)
Experiment: dual-colour single-molecule TIRF microscopy on live HeLa cells, 1 nM labelled ligand

- binding: binds
B1: Dy547P1/Dy647P1 conjugated ybbR-Switch-2 (N-terminal MBP and YbbR tag, C-terminal histidine tag, from E. coli) (ligand, not shown: large carriers; small tags and cut ends)
chain: DSLEFIASKLAAPTSSSTKKTQLQLEHLLLDLQMILNGINNYKNPKLHLMLSYGFYMPKKATELKHLQCLEEELKPLEEVLNLAQSKNFHLRPRDLISNINVIVLELKGSETTFMCEYADETATIVEFLNRWITFCQSIIS
modifications: Dy547P1 or Dy647P1 dye conjugated (ybbR tag)
